# Record: PubChem BioAssay AID1259308 (NCATS, 2017)
# Purpose: 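Candidate targets for better recombinant protein yield in mammalian cells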 (primary screen)
# System: human HEK293 embryonic kidney cells stably expressing firefly luciferase (HEK-CMV-Luc2-Hygro)
# Reagent: single siRNA against human genes, 0.8 pmol siRNA per well
# Time to read-out: 72 h
# Read-out: 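Reporter luminescence and viable-cell signal on separate replicate plates, given as percent of non-targeting control and median/MAD z-scores, plus per-cell luciferase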
# Reading the numbers: total luciferase, z-score and total luciferase, % of control: higher = more reporter protein produced
# Active means: 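An siRNA counts as active if its total luciferase robust z-score exceeds 3; genes with two or more such siRNAs out of three were retested with fresh siRNAs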
# Calls: active = raised luciferase; inactive = no rise
# The deposit covers about 59,000 reagents; below is an unselected part. About 1,510 of all reagents (2.6%) were called active. 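Calls use total luciferase alone and ignore viability, so some active siRNAs may act by altering cell number.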 Reagents against one gene are numbered here. Not all columns of the deposit are shown. No sequences are given here.
gene knocked down,siRNA no.,"total luciferase, z-score","total luciferase, % of control",activity call
ZDHHC17 (zDHHC palmitoyltransferase 17),1,-0.394,74.1,inactive
ZDHHC17 (zDHHC palmitoyltransferase 17),2,1.51,112,inactive
ZDHHC17 (zDHHC palmitoyltransferase 17),3,-2.46,32.9,inactive
ACAN (aggrecan),1,0.795,97.7,inactive
ACAN (aggrecan),2,-0.205,77.8,inactive
ACAN (aggrecan),3,1.8,118,inactive
SDC4 (syndecan 4),1,1.33,108,inactive
SDC4 (syndecan 4),2,3.69,155,active
SDC4 (syndecan 4),3,-1.22,57.6,inactive
UQCRFS1P2,1,0.445,90.7,inactive
UQCRFS1P2,2,-0.157,78.8,inactive
UQCRFS1P2,3,-1.01,61.8,inactive
TTC3 (tetratricopeptide repeat domain 3),1,0.0197,82.3,inactive
TTC3 (tetratricopeptide repeat domain 3),2,-0.402,73.9,inactive
TTC3 (tetratricopeptide repeat domain 3),3,-1.47,52.7,inactive
KIRREL3 (kirre like nephrin family adhesion molecule 3),1,-0.749,67,inactive
KIRREL3 (kirre like nephrin family adhesion molecule 3),2,-0.134,79.2,inactive
KIRREL3 (kirre like nephrin family adhesion molecule 3),3,-0.956,62.9,inactive
MFF (mitochondrial fission factor),1,-1.4,54.1,inactive
MFF (mitochondrial fission factor),2,1.88,119,inactive
MFF (mitochondrial fission factor),3,-1.08,60.5,inactive
DCXR (dicarbonyl and L-xylulose reductase),1,-0.457,72.8,inactive
DCXR (dicarbonyl and L-xylulose reductase),2,0.43,90.4,inactive
DCXR (dicarbonyl and L-xylulose reductase),3,-0.0802,80.3,inactive

Records listed so far whose target name begins with Z or z (3):
gene knocked down,siRNA no.,"total luciferase, z-score","total luciferase, % of control",activity call
ZDHHC17 (zDHHC palmitoyltransferase 17),1,-0.394,74.1,inactive
ZDHHC17 (zDHHC palmitoyltransferase 17),2,1.51,112,inactive
ZDHHC17 (zDHHC palmitoyltransferase 17),3,-2.46,32.9,inactive
